Experimental findings from the supplement of paper PMC7858590 are described below.

Where “and” joins values, the source holds several entries; their conditions need not be identical. Identical values can stand only once. ± gives the standard deviation of the averaged measurements. In all, about 3,800 compounds were measured (“cell shape (eccentricity) Z-score vs DMSO control”: median about 1.1, lowest 2% from about -4.7 on). The list shows a part of the results.

The assay relates to human monocyte-derived macrophages (M0). Kind of assay: cell shape (eccentricity) Z-score vs DMSO control; higher = more elongated, M2-like morphology. The following applies: 20 µM; 24 h; macrophage state: M0 (M-CSF).
As for `OC1(c2ccc(Cl)c(C(F)(F)F)c2)CCN(CCCC(c2ccc(F)cc2)c2ccc(F)cc2)CC1`, the “cell shape (Z-score)” value was -6.96.

As to `C[C@]12C=CC(=O)C=C1CCC1C2[C@@H](O)C[C@@]2(C)C1CC[C@]2(O)C(=O)COC(=O)CCC(=O)O` (some centres not stated), the “cell shape (Z-score)” value was -4.31.

For the compound `Cc1ncc(CSSCc2cnc(C)c(O)c2CO)c(CO)c1O`, the “cell shape (Z-score)” value is 1.85.

For `C=C(CO)[C@]1(O)C[C@@]2(C)C(=CC1=O)C=C[C@@H](O)[C@@H]2C`, the “cell shape (Z-score)” value came out at 0.618.

As to `Nc1ccc(S(=O)(=O)Nc2ccnn2-c2ccccc2)cc1`, the “cell shape (Z-score)” value stood at 1.56.

`COc1cc(-c2coc3cc(OCc4ccccc4)c(OC)c(O)c3c2=O)cc(OCc2ccccc2)c1OC`: the “cell shape (Z-score)” value came to 2.54.

Turning to `Cn1[nH]c(=O)c(=O)[nH]c1=S`, the “cell shape (Z-score)” value is 0.81.

On to `O=S(=O)(NCCCCCCc1ccccc1)c1cccc2c(Cl)cccc12`, for which the “cell shape (Z-score)” value came out at 2.3.

For the compound `COc1cc(-c2oc3cc(O)cc(O)c3c(=O)c2OC2OC(CO[C@@H]3O[C@@H](C)[C@H](O)[C@@H](O)[C@H]3O)C(O)C(O)C2O)ccc1O` (some centres not stated), the “cell shape (Z-score)” value is -2.62.

For the compound `CN(C)CCCN1c2ccccc2Sc2ccc(C(F)(F)F)cc21`, the “cell shape (Z-score)” value is -0.684.

In the case of `O=C(/C=C/c1ccc(O)cc1)NCC(O)c1ccc(O)cc1` (configuration not stated), the “cell shape (Z-score)” value came to 0.0999.

As to `COc1ccc([C@@]2(O)c3c(ccc(CC=C(C)C)c3O)NC(=O)[C@@H]2OC)cc1`, the “cell shape (Z-score)” value came to 0.446.

As for `Cc1cc(=O)oc2cc(O)ccc12`, the “cell shape (Z-score)” value is 1.67.

On to `C=CC1=C(C(=O)O)N2C(=O)[C@@H](NC(=O)/C(=N/O)c3csc(N)n3)[C@H]2SC1`, for which the “cell shape (Z-score)” value is 1.29.

`CCn1c(=O)n(C2=C(CO)CN(CC3CCCCCCC3)CC2)c2ccccc21`: the “cell shape (Z-score)” value was determined as 0.146.

Take `c1ccc(CNc2ncnc3nc[nH]c23)cc1`: the “cell shape (Z-score)” value was found to be 1.75.

`C/C=C(/C)C(=O)OC1C(OC(C)=O)c2c(ccc3ccc(=O)oc23)OC1(C)C` (configuration not stated): the “cell shape (Z-score)” value was 1.85.

Turning to `CC(C)(C)C(=O)OCOP(=O)(COCCn1cnc2c(N)ncnc21)OCOC(=O)C(C)(C)C`, the “cell shape (Z-score)” value was -2.38.

Regarding `CCCCC[C@@H](O)CC(=O)CCc1ccc(O)c(OC)c1`, the “cell shape (Z-score)” value is -1.32.

For `C[C@]12CC[C@H](O)CC1=CC[C@@H]1[C@@H]2CC[C@]2(C)C(c3cccnc3)=CC[C@@H]12`, the “cell shape (Z-score)” value is -0.579 ± 1.3.

As for `CCCNC(C)C(=O)Nc1ccccc1C` (configuration not stated), the “cell shape (Z-score)” value worked out at 1.99.

As to `Oc1ccc(CCCc2ccc3c(c2)OCO3)c(O)c1`, the “cell shape (Z-score)” value turned out to be 3.7.

With `O=C1C[C@@H](c2ccc(O)c(O)c2)Oc2cc(O[C@@H]3O[C@H](CO)[C@@H](O)[C@H](O)[C@H]3O)cc(O)c21`, the “cell shape (Z-score)” value is 0.661 ± 1.8.

With `C/C(=C\CC[C@@H](C)[C@H]1CC(O)[C@@]2(C)C3CC[C@H]4C(C)(C)[C@@H](O[C@@H]5OC(CO)C(O)C(O)C5OC5OC(CO)C(O)C(O)C5O)CC[C@@]45C[C@@]35CC(O)[C@]12C)C(=O)O` (some centres not stated), the “cell shape (Z-score)” value is -1.27.

For the compound `CN[C@H]1CC[C@@H](c2ccc(Cl)c(Cl)c2)c2ccccc21`, the “cell shape (Z-score)” value was -5.32.

As to `CC1(C)C(=O)C=C[C@@]2(C)C1C=C[C@]1(C)C2CC[C@@]2(C)[C@H](c3ccoc3)OC(=O)[C@H]3O[C@]321` (some centres not stated), the “cell shape (Z-score)” value amounted to 7.92.

Take `C=CCc1ccc(O)c(OC)c1`: the “cell shape (Z-score)” value was 1.31.

With `Cc1ccc(C(=CCN2CCCC2)c2ccccn2)cc1`, the “cell shape (Z-score)” value stood at 0.883.

Consider `O=C(O)c1cc(=O)c2ccccc2o1`, for which the “cell shape (Z-score)” value was -0.732.

As for `CC(=O)OC/C(=C\COc1cc(=O)oc2cccc(C)c12)CCC=C(C)C`, the “cell shape (Z-score)” value is 1.97.

Turning to `CC1C(=O)C23CC(O)C4C(C)(C(=O)OC5OC(CO)C(O)C(O)C5O)CCCC4(C)C2(O)CCC1C3` (configuration not stated), the “cell shape (Z-score)” value was -1.63.

Consider `C=Cc1cncc2c(=O)n3c(cc12)-c1[nH]c2ccccc2c1CC3`, for which the “cell shape (Z-score)” value is 2.24.

Regarding `C=CC[C@@H]1/C=C(\C)C[C@H](C)C[C@H](OC)[C@H]2O[C@@](O)(C(=O)C(=O)N3CCCC[C@H]3C(=O)O[C@H](/C(C)=C/[C@@H]3CC[C@@H](O)[C@H](OC)C3)[C@H](C)[C@@H](O)CC1=O)[C@H](C)C[C@@H]2OC`, the “cell shape (Z-score)” value is 1.85 and 3.1.

For the compound `COC(CCc1ccc(O)c(O)c1)CC(=O)CCc1ccc(O)c(O)c1` (configuration not stated), the “cell shape (Z-score)” value was 1.18.

For the compound `O=c1c2c(c1=O)N(CCP(=O)(O)O)CCCN2`, the “cell shape (Z-score)” value worked out at 1.87.

On to `C[C@H](CCC(=O)NCC(=O)O)[C@H]1CCC2C3C(C[C@H](O)[C@@]21C)[C@@]1(C)CC[C@@H](O)CC1C[C@H]3O` (some centres not stated), for which the “cell shape (Z-score)” value stood at 1.5.

`CC(C)(O)C(O)COc1c2ccoc2cc2oc(=O)ccc12` (configuration not stated): the “cell shape (Z-score)” value was -1.19.

On to `CN(Cc1ccccc1)C(=O)C(Cc1ccc2ccccc2c1)NC(=O)C1CCCN1C(=O)Nc1ccccc1[N+](=O)[O-]` (configuration not stated), for which the “cell shape (Z-score)” value was 2.76.

`CC(C)(Oc1ccc(CCNC(=O)c2ccc(Cl)cc2)cc1)C(=O)O`: the “cell shape (Z-score)” value came to 1.54.

As to `CCOC(=O)CCNc1cc(N2CCc3ccccc3CC2)nc(-c2ccccn2)n1`, the “cell shape (Z-score)” value is 3.61.

Consider `O=C(/C=C/CCc1ccc2c(c1)OCO2)N1CCCCC1`, for which the “cell shape (Z-score)” value was -1.14.

With `O=c1[nH]c2cc(Cl)c(Cl)c([N+](=O)[O-])c2[nH]c1=O`, the “cell shape (Z-score)” value came out at 0.958.

On to `O=C(c1ccc(Nc2nccc(-c3cc4ccccc4s3)n2)cc1)N1CCC(N2CCCC2)CC1`, for which the “cell shape (Z-score)” value was -4.98.

In the case of `CC(C)(C)NC[C@H](O)COc1nsnc1N1CCOCC1`, the “cell shape (Z-score)” value is 0.397.

Regarding `CC(=O)N[C@H]1C[C@@H](C(=O)Nc2cc(-c3ccc(F)cc3)ccc2N)C1`, the “cell shape (Z-score)” value was found to be 3.46.

In the case of `CC[C@H](NC(=O)c1c(C)c(-c2ccccc2)nc2ccccc12)c1ccccc1`, the “cell shape (Z-score)” value was determined as 3.9.

`COc1ccc2cc1Oc1ccc(cc1)C[C@H]1c3c(cc4c(c3Oc3cc5c(cc3OC)CCN(C)[C@@H]5C2)OCO4)CCN1C`: the “cell shape (Z-score)” value is -2.3.
